Data reported in patent US6410587B1, “Compounds and therapies for the prevention of vascular and non-vascular pathologies” (NeoRx Corporation, priority 1997, dated 2002).
Some of these results come from one statement about several compounds together.

Tested on: GR
Assay: MMTV LTR-CAT reporter in stably transfected SMCs
Assay type: cell-based
Settings: TNF-alpha (up to 100 ng/ml), tamoxifen (up to 10 μM) or both together
Text: Because ER. interacts with NFkB transcription factor complexes in a similar manner to that for GR, agents which modulate ER/NFkB interaction should modulate the inflammatory response without activating GR. To test this hypothesis, SMCs in DMEM+10% FCS were transfected with a vector comprising the MMTV LTR promoter coupled to the chloramphenicol acetyl transferase (CAT) gene and the neomycin resistance gene (neo). A stably transfected line was selected using geneticin. When these cells were treated with dexamethasone, expression of the CAT gene was elevated 3.7±0.7 fold. […] Thus, ER/NFkB modulators would be expected to circumvent the undesirable side-effect profile associated with direct transcriptional activation by GR.

## CC/C(=C(\c1ccccc1)c1ccc(OCCN(C)C)cc1)c1ccccc1 [TMX, trans-2-[4-(1,2-diphenyl-1-butenyl)phenoxy]-N,N-dimethylethylamine]
  stimulation of expression of the CAT gene: up to 10%
